Measured values reported in patent US20240044903A1 (KOZA NOVEL MATERIALS KOREA, published 2024).
Results are given in words; binding and its absence hold for the method and conditions named. Some entries that bind do so weakly or less than the wild type.

Biological target: T1, canine serum TK1 (dog)
T1 sequence: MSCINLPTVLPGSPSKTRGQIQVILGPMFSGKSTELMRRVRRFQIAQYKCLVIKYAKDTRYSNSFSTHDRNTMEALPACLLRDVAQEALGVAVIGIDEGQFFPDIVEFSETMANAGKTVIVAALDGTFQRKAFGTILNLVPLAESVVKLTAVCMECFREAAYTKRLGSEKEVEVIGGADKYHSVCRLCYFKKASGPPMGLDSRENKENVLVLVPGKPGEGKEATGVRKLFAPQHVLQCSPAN
Assay: immunoprecipitation with anti-mouse IgG DYNABEADS from dog sera

B1: CTK1-1 (mAb1) (antibody, mouse IgG1, kappa, V domains shown)
VH: EVKLVESGGGLVQPGDSLRLSCATSGFTFNDHYMNWVRQPPGKALEWVAFIGNKAYGYKIEYNSSVKGRFTISRDDSQSFLYLQLNTLRSEDSATYYCARDGAFIYWGQGTVVTVSA
VL: DVVMTQTPLSLPVSLGDQASISCRSSQSLVHSNGNTYLHWYLQKPGQSPKLLIYKVSNRFSGVPDRFSGSGSGSDFTLKISRVEAEDLGVYFCSQSTHIPYTFGGGTELEIRR
notes: Mouse monoclonal IgG1-kappa from hybridoma sub-clone 9C8, raised against the active site peptide (amino acids 161-183) of human TK1; also called 9C8
Question: B1 was tested. Which binding did it give?
Answer: Its binding is “binds”.
